Biological target: T1, Squalene synthase (Rattus norvegicus, UniProt Q02769)
T1 sequence (Q02769 whole entry): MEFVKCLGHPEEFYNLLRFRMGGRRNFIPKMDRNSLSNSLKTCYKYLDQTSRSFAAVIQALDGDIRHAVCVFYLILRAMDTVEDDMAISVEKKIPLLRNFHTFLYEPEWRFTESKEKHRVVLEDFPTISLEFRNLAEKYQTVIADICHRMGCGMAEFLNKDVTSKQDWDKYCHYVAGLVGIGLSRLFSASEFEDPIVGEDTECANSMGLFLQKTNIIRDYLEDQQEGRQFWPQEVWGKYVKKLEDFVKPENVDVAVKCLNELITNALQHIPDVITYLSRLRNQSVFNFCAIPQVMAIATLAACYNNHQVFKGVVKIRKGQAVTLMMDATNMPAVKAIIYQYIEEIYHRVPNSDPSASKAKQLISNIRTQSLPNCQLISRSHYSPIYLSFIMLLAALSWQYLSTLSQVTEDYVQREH
Experiment: In vitro inhibitory activity against rat liver squalene synthase

IC50: 6 nM
SMILES: C=C(CCC12OC(C(=O)O)C(O)(C(=O)O)C(C(=O)O)(O1)[C@H](O)[C@H]2O)[C@@H](OC(C)=O)[C@H](C)Cc1ccccc1 (stereo partly specified)

From ChEMBL document CHEMBL1127965, “Synthesis of novel monocyclic squalestatin analogues as potential inhibitors of squalene synthase” (Bioorg Med Chem Lett, 1994)
